# According to patent publication US9072703B2 (Ipsen Pharma S.A.S., priority 2008, dated 2015):
# Assay: peptide synthesis
# Conditions: whole synthesis
row,Substance,final HPLC purity
1,"[A5c^11,41, Cys^32(succinimide-N-20K PEG)]hGIP(1-42)-NH2",99.9%
2,"[A5c^11,41, Cys^43(succinimide-N-30K PEG)]hGIP(1-43)-NH2",99.9%
3,"[A5c^11,41, Cys^43(succinimide-N-20K PEG)]hGIP(1-43)-NH2",99.9%

# Assay: general procedure: Fmoc solid-phase peptide synthesis; Pre-loaded Fmoc-Cys(Trt)-Wang or Fmoc-Gln(Trt)-Wang resin (0.59 mmole/g; Novabiochem); Rink amide MBHA resin for amides; HBTU/DIPEA
# Conditions: whole synthesis
row,Substance,isolated mass
1,"[A6c^7, Orn^35(N—C(O)—(CH2)12—CH3)]hGIP(1-42)-OH",6.2 mg
2,"[A6c^7, Cys(Psu)^42]hGIP(1-42)-OH",10.3 mg

# Same assay, conditions: whole synthesis, HPLC, 250×4.6 mm C18 column (Phenomenex), 2-80% acetonitrile (0.1% TFA) over 30 minutes, scale of the general procedure 0.1 mmole
Substance,final HPLC purity,crude HPLC purity
"[A5c^11, Orn^33(N—C(O)—(CH2)14—CH3), His^43]hGIP(1-43)-OH",93.0%,–
"(A5c^11, Nle^14, His^43)hGIP(1-43)-OH",99.9%,–
(A5c^11)hGIP(1-30)-NH2,96.7%,–
"(A5c^11, 14, His^43)hGIP(1-43)-OH",99.9%,–
"[A5c^11, Orn^33(N—C(O)—(CH2)10—CH3), His^43]hGIP(1-43)-OH",82.9%,–
"[A5c^11, Orn^32(N—C(O)—(CH2)10—CH3), His^43]hGIP(1-43)-OH",92.2%,–
"(A5c^11, 41, Cys^43)hGIP(1-43)-NH2",96.9%,–
"[A5c^11, Lys^43(N—C(O)—(CH2)10—CH3)]hGIP(1-43)-OH",86.5%,–
"(A5c^11, 14)hGIP(1-30)-NH2",99.9%,–
"(A5c^11, 41)hGIP(1-42)-OH",99.00%,–
"[A5c^11, Lys^43(N—C(O)—(CH2)14—CH3)]hGIP(1-43)-OH",95.5%,–
"(A5c^11, Thr^43)hGIP(1-43)-OH",99.90%,–
"[A5c^11, Orn^32(N—C(O)—(CH2)14—CH3), His^43]hGIP(1-43)-OH",90.6%,–
"(Aib^13, Trp^43)hGIP(1-43)-OH",99.99%,–
"(Aib^13, Nle^14, Phe^43)hGIP(1-43)-OH",99.90%,–
"[A6c^7, Orn^35(N—C(O)—(CH2)12—CH3)]hGIP(1-42)-OH",97.40%,50% purity
"(A5c^11, Asn^43)hGIP(1-43)-OH",99.90%,–

Substance,final HPLC purity,crude HPLC purity
"(A5c^11, 41, Cys^32)hGIP(1-42)-NH2",95.5%,–
"(Aib^13, A5c^40)hGIP(1-42)-OH",99.00%,–
"(A5c^11, His^43)hGIP(1-43)-OH",99.90%,–
"(A5c^11, 40)hGIP(1-42)-OH",98.00%,–
"(A5c^11, Ala^43)hGIP(1-43)-OH",97.40%,–
"(A6c^7, 41)hGIP(1-42)-OH",99.90%,–
"(A5c^11, His^31)hGIP(1-31)-NH2",97.7%,–
"[A6c^7, Orn^31(N—C(O)—(CH2)12—CH3)]hGIP(1-42)-OH",96.10%,–
"(Aib^13, Nle^14, A5c^40)hGIP(1-42)-OH",99.00%,–
"(A6c^11, 14, 41)hGIP(1-42)-OH",98.00%,–
"(A5c^11, 41, Cys^33)hGIP(1-42)-NH2",96.2%,–
"(Aib^13, Asp^43)hGIP(1-43)-NH2",99.90%,–
"(A5c^11, Ado^43)hGIP(1-43)-OH",99.99%,–
"(A6c^7, 41, Nle^14)hGIP(1-42)-OH",99.00%,–
"[A6c^7, Cys(Psu)^42]hGIP(1-42)-OH",96.60%,–
"(A6c^11, 14, 40)hGIP(1-42)-OH",99.00%,–

# Same assay, conditions: whole synthesis, scale 0.1 mmole
row,Substance,crude mass
1,"[A6c^7, Orn^35(N—C(O)—(CH2)12—CH3)]hGIP(1-42)-OH",approximately 500 mg
2,"[A6c^7, Cys(Psu)^42]hGIP(1-42)-OH",approximately 500 mg

# Same assay, conditions: whole synthesis, scale of the general procedure 0.1 mmole
row,Substance,isolated yield
1,"[A6c^7, Orn^35(N—C(O)—(CH2)12—CH3)]hGIP(1-42)-OH",1.2%
2,"[A6c^7, Cys(Psu)^42]hGIP(1-42)-OH",2%
